Where a name gives a salt, the structure may show the parent alone. This is one part of the list. The calls rarely recur for the same compound in another form.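 In K562 cells expressing nanoluciferase-fused kinases, luminescence was recorded at 4 h intervals between 2 and 18 h, normalized as percent of control with DMSO at 100% and a positive control at 0%. A significant (2 sigma) signal drop marks a time point as decreased. The authors' rule for a hit is not shown and takes in more than the number of time points.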
Assays:
Assay in all cases: number of time points (of 5) at which kinase-Nluc abundance scored as decreased, DMSO-normalised (count); higher = more persistent destabilization
Details in all cases: K562; 2-18 h
EGFR_L861Q = EGFR_L861Q (UniProt P00533)
EGFR_T790M = EGFR_T790M (UniProt P00533)
EPHA2 = EPHA2 (UniProt P29317)
ERBB3 = ERBB3 (UniProt P21860)
[1] = target: ERBB4_R711C (clone: ERBB4_mut) (UniProt Q15303)
ERN1 = ERN1 (UniProt O75460)
FGFR1 = FGFR1 (UniProt P11362)
FGFR2 = FGFR2 (UniProt P21802)
FGFR3 = FGFR3 (UniProt P22607)
FGR = FGR (UniProt P09769)
FLT3 = FLT3 (UniProt P36888)
FYN = FYN (UniProt P06241)
GSK3A = GSK3A (UniProt P49840)
HER2 = HER2 (UniProt P04626)
INSRR = INSRR (UniProt P14616)
IRAK3 = IRAK3 (UniProt Q9Y616)
JAK1 = JAK1 (UniProt P23458)
LCK = LCK (UniProt P06239)
LIMK1 = LIMK1 (UniProt P53667)
LIMK2 = LIMK2 (UniProt P53671)

By UniProt entry, the sequences of proteins in these tests, tags left out. Where a name states a change or a piece, a line headed by the entry shows the natural chain unless it says otherwise.
UniProt P29317, whole entry: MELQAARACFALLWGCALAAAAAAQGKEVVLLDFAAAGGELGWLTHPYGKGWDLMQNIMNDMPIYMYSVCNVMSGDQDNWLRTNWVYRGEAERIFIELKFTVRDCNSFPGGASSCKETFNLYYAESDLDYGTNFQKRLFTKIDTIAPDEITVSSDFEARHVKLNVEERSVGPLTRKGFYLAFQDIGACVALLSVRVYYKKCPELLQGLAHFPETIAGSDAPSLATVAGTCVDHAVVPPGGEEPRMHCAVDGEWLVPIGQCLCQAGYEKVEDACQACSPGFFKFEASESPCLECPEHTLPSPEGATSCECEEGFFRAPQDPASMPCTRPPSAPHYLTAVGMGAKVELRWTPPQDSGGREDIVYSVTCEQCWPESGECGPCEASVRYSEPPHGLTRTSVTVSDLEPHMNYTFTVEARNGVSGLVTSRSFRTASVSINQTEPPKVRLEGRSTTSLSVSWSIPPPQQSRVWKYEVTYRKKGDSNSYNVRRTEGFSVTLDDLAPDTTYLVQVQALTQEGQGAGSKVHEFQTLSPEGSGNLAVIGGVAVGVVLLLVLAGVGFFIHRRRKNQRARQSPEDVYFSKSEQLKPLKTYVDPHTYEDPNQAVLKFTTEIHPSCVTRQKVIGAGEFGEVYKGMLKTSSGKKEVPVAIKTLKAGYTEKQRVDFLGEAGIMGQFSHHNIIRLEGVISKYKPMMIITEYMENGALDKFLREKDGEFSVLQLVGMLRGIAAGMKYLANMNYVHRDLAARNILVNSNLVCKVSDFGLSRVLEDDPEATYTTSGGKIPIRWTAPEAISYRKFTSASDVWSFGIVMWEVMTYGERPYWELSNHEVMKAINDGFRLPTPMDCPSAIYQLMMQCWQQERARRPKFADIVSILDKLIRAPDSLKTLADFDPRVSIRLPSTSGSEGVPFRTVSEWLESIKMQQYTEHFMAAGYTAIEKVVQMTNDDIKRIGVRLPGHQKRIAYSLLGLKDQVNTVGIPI
UniProt P21860, whole entry: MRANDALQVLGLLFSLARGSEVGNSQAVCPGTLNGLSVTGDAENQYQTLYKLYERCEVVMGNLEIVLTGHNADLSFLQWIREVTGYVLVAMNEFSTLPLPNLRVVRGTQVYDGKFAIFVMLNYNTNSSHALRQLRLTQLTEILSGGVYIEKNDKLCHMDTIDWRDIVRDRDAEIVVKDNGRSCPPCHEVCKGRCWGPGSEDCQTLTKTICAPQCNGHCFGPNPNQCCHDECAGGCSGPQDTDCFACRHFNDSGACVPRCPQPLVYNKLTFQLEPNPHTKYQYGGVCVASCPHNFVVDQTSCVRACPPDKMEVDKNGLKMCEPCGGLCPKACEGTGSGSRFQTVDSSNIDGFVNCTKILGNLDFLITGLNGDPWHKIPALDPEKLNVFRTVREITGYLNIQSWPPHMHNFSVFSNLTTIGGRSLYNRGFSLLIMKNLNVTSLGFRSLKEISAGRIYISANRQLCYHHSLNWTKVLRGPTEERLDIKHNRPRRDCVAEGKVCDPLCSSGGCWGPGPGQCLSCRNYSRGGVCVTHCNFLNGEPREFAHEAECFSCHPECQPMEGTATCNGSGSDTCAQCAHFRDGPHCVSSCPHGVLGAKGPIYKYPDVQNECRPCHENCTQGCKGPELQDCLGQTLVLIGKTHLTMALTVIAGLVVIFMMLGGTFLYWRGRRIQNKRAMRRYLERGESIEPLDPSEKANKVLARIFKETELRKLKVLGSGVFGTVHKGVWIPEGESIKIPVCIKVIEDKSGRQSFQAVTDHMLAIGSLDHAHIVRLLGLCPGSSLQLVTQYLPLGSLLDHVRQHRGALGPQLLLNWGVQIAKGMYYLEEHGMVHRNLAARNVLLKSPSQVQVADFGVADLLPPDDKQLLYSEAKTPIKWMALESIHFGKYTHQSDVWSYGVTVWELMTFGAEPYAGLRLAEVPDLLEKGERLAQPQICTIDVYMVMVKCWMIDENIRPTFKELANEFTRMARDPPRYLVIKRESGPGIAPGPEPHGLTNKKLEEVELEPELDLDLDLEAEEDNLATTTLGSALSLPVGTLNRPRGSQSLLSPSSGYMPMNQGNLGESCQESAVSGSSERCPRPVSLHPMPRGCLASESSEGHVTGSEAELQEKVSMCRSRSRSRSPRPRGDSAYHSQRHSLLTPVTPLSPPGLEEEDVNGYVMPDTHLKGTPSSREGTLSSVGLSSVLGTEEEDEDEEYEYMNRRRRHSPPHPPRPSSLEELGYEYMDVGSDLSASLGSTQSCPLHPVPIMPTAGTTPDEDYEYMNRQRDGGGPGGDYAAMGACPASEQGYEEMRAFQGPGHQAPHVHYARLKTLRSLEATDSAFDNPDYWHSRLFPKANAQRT
UniProt O75460: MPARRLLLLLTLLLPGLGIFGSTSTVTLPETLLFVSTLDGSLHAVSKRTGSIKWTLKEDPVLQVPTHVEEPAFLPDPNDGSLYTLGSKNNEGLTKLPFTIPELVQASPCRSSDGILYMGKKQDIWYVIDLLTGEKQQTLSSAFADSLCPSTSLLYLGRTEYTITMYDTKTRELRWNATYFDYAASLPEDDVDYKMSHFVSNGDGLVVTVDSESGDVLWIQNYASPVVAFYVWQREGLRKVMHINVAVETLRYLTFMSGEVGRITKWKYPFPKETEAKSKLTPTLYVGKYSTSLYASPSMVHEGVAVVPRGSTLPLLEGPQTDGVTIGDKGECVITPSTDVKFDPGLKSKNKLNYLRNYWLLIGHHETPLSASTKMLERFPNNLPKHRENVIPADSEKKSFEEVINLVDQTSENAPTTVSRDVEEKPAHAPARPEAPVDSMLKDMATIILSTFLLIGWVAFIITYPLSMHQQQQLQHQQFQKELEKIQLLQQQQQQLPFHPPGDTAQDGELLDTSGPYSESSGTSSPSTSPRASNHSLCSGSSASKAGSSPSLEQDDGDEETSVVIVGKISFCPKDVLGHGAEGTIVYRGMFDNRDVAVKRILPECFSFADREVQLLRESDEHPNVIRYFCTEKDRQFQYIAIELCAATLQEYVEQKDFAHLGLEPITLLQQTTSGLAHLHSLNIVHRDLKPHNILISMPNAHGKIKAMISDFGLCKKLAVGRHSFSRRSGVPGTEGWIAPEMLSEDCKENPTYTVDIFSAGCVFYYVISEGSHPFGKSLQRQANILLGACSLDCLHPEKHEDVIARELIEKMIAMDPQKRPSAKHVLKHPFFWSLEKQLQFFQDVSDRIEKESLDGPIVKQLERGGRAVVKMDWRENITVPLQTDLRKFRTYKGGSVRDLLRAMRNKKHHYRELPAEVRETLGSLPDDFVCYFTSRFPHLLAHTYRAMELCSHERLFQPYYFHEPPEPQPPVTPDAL
UniProt P21802, whole entry, looked up: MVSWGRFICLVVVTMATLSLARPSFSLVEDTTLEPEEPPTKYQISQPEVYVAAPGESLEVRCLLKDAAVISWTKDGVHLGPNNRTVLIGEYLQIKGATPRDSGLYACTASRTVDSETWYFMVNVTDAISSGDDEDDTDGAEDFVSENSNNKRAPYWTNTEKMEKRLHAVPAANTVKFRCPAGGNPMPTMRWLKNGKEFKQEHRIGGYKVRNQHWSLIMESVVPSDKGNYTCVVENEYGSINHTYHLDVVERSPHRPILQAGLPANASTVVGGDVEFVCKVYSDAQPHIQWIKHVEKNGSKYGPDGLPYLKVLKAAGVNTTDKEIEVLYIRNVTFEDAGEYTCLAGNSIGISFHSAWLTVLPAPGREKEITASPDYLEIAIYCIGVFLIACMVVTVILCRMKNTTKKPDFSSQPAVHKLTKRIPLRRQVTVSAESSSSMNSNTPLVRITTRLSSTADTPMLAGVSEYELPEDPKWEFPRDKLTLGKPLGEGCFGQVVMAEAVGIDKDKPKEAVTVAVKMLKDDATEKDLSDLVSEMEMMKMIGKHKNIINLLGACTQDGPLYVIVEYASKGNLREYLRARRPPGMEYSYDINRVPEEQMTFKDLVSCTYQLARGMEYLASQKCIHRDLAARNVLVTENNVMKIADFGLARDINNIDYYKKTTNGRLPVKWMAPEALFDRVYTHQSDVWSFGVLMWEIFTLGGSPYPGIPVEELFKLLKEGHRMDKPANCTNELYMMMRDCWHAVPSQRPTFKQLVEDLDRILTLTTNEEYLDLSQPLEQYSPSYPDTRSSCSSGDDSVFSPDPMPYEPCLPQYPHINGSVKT
UniProt P22607, whole entry, looked up: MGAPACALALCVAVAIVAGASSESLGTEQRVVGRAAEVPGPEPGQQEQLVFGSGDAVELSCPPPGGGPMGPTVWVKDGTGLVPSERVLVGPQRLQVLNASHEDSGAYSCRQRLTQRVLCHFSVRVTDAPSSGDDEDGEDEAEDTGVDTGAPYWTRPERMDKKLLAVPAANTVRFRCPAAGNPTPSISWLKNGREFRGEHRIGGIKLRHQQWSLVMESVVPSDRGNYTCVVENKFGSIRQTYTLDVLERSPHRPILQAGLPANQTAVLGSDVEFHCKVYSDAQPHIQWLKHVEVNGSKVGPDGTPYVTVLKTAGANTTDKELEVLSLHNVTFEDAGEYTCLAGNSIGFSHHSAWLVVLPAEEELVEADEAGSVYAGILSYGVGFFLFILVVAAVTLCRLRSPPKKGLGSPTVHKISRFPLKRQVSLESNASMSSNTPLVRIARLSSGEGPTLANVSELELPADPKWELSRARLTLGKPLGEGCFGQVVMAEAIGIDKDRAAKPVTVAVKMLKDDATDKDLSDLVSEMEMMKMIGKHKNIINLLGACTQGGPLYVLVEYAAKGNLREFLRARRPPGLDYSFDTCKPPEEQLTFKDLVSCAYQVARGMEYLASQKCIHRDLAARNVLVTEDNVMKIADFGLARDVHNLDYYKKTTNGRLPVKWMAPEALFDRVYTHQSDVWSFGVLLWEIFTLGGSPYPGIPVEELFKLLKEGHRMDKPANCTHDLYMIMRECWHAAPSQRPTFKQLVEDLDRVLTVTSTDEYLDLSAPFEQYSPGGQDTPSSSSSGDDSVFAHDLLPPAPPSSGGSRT
UniProt P23458: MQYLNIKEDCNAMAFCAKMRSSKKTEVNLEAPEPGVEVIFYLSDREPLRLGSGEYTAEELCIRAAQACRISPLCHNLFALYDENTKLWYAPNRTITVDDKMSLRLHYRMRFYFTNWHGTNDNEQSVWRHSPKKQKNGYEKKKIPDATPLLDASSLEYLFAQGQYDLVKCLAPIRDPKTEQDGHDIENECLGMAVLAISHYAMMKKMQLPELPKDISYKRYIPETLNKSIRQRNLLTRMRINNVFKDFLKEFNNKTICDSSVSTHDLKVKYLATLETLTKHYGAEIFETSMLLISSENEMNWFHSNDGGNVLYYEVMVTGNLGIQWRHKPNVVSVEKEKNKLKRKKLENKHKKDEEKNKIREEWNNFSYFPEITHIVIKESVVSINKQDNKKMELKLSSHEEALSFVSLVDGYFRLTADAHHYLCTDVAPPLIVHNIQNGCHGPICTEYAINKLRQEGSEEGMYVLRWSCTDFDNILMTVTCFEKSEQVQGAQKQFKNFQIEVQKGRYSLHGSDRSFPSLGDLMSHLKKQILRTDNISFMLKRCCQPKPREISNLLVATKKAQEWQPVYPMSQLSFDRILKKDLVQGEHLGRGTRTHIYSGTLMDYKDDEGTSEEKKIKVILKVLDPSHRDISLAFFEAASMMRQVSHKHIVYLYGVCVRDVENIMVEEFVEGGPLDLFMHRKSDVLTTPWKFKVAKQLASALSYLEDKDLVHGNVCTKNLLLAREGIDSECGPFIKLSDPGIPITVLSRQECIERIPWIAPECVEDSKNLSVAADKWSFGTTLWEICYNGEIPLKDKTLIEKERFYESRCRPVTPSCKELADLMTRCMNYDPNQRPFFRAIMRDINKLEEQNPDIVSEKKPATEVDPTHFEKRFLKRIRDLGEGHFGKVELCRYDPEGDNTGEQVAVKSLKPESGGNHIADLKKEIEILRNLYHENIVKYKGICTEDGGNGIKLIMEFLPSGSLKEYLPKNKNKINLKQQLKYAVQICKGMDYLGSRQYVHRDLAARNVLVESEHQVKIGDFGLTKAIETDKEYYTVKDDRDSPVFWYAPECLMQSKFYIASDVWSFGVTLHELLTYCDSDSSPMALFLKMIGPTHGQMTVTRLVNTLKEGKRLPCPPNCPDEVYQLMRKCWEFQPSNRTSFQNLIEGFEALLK
UniProt P06239: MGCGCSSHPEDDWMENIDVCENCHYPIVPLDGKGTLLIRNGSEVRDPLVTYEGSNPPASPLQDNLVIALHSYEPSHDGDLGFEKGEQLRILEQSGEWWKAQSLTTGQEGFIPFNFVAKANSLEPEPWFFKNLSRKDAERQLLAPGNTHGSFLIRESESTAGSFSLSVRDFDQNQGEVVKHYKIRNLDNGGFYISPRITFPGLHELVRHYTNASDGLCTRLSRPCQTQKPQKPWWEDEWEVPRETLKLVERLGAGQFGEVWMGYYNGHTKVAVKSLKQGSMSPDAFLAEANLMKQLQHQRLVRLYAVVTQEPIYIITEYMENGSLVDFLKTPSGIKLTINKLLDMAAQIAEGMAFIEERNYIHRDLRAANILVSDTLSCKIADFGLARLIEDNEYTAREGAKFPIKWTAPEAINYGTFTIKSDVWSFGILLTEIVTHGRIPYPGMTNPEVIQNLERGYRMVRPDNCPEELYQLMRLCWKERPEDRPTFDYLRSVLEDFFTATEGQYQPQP

Measured: number of time points

COCCOc1ccc(-c2cn(-c3ccccc3)c3nc[nH]c(=O)c23)cc1 (10 µM)
0: all assays above

Nc1nccc(Oc2ccc(NC(=O)c3cn(COP(=O)(O)O)cc(-c4ccc(F)cc4)c3=O)cc2F)c1Cl (10 µM)
2: LIMK1
1: [1]
0: all other assays above

CCc1cc(O)c(F)cc1-c1ccc2c(-c3nc4c([nH]3)CN(C3CCN(C)CC3)CC4)n[nH]c2c1 [JAK-IN-5 (hydrochloride)] (2 µM)
3: ERBB3 | [1] | FGFR2 | JAK1
4: FYN
2: EGFR_L861Q | FGFR1 | INSRR | IRAK3
0: all other assays above

CNC(=O)Nc1ccc(-c2cc(-c3ccnc(Nc4ccc(C)c(S(=O)(=O)N(C)C)c4)n3)ccn2)cc1 [hSMG-1 inhibitor 11e] (2.5 µM)
3: FYN
4: [1] | FLT3
2: EGFR_L861Q | JAK1
0: all other assays above

CN1CCN(c2ccc(C(=O)Nc3cc(-c4cccc(NS(=O)(=O)c5ccccc5)c4)[nH]n3)cc2)CC1 [BPR1J-097 Hydrochloride] (2.5 µM)
0: all assays above

OC(COc1ccc(C(F)(F)F)cc1)CN(Cc1ccccc1)Cc1ccccc1 (stereo not given) (2.5 µM)
0: all assays above

N#Cc1c(-c2ccccc2)cc(-c2cc(Br)ccc2O)[nH]c1=O (10 µM)
1: FGFR1
0: all other assays above

c1cn2cc(-c3ccc4cn[nH]c4c3)nc(Nc3ccc(N4CCOCC4)cc3)c2n1 [Entospletinib] (10 µM)
0: all assays above

CC[C@@]1(c2ccccc2)C2=C(CC(C)(C)CC2=O)Nc2[nH]ncc21 (10 µM)
0: all assays above

O=C(Nc1cccnc1)c1cc(C(=O)c2c(F)cccc2Br)c[nH]1 (10 µM)
0: all assays above

Cc1ccc(Nc2cc(-c3cccc(N4C(=O)c5ccccc5C4=O)c3)ncn2)cc1NS(C)(=O)=O (10 µM)
2: EPHA2
1: [1] | IRAK3 | JAK1
0: all other assays above

c1cc2c(cc1O[C@H]1OC[C@H]3[C@@H]1CO[C@@H]3c1ccc3c(c1)OCO3)OCO2 [Sesamolin] (10 µM)
0: all assays above

COCCO[C@@H]1[C@H](O)[C@@H](CO)O[C@H]1n1cnc2c(=O)[nH]c(N)nc21 [2′-O-(2-Methoxyethyl)guanosine] (10 µM)
0: all assays above

O=C(Nc1ccc(F)cc1F)[C@H](NC(=S)Nc1cc(C(F)(F)F)cc(C(F)(F)F)c1)c1ccccc1 (2.5 µM)
0: all assays above

CS(=O)(=O)c1ccc(-c2noc(C(F)(F)F)c2-c2ccccc2)cc1 (10 µM)
0: all assays above

CCN(CC)c1ccc2cc(C(=O)N3CCN(C(=O)C4=Cc5c(Br)cccc5S4(=O)=O)CC3)c(=O)oc2c1 (2 µM)
1: FYN
0: all other assays above

Cc1cc2cc(Nc3ccnc(Nc4ccc5[nH]c(C)cc5c4)n3)ccc2[nH]1 (2.5 µM)
0: all assays above

Three structures already listed, arranged by number of heavy atoms, descending.
Nc1nccc(Oc2ccc(NC(=O)c3cn(COP(=O)(O)O)cc(-c4ccc(F)cc4)c3=O)cc2F)c1Cl (10 µM)
2: LIMK1
1: [1]
0: all other assays above

O=C(Nc1ccc(F)cc1F)[C@H](NC(=S)Nc1cc(C(F)(F)F)cc(C(F)(F)F)c1)c1ccccc1 (2.5 µM)
0: all assays above

OC(COc1ccc(C(F)(F)F)cc1)CN(Cc1ccccc1)Cc1ccccc1 (stereo not given) (2.5 µM)
0: all assays above

(listing goes on)

C#CCN(C)C(=O)CCNc1nc(N2CCN(C(=O)C=C)CC2)c2cc(Cl)c(-c3c(O)cccc3F)c(F)c2n1 [ARS-1323-alkyne] (2.5 µM)
0: all assays above

Cc1ccc(NC(=S)NNc2c([N+](=O)[O-])cc(C(F)(F)F)cc2[N+](=O)[O-])cc1Cl (10 µM)
0: all assays above

Cc1c(CN2CCN(S(C)(=O)=O)CC2)sc2c(N3CCOCC3)nc(-c3cnc(N)nc3)nc12 (2.5 µM)
3: HER2
2: LIMK1
0: all other assays above

Cc1c(NC(=O)OC[C@@H]2COCCN2)cn2ncnc(Nc3ccc4c(cnn4Cc4cccc(F)c4)c3)c12 (10 µM)
0: all assays above

CCN1CCN(Cc2ccc(Nc3ncc(F)c(-c4cc(F)c5nc(CO)n(C(C)C)c5c4)n3)nc2)CC1 [Abemaciclib metabolite M20] (2 µM)
0: all assays above

COC1(c2sc3c(N4CCOCC4)nc(-c4cnc(N)nc4)nc3c2C)COC1 (2.5 µM)
1: GSK3A | HER2
0: all other assays above

Cc1cc(Nc2cc3ncccc3c(N[C@@H]3C[C@H]4CC[C@@H](C3)N4CCC#N)n2)n[nH]1 [Izencitinib] (10 µM)
0: all assays above
